{"source": "patent US12286661B2", "about": "“Methods for making high intensity sweeteners” (Firmenich Incorporated, priority 2018, dated 2025)", "experiment": "Analytical results: observed concentration of the sensory test solutions", "assay_type": "physicochemical", "details": "theoretical 175 ppm in LSB, n = 2"}
{"smiles": "C[C@H](CC[C@@H](O[C@@H]1O[C@H](CO[C@H]2O[C@H](CO)[C@@H](O)[C@H](O)[C@H]2O)[C@@H](O)[C@H](O)[C@H]1O[C@@H]1O[C@H](CO)[C@@H](O)[C@H](O)[C@H]1O)C(C)(C)O)C1CC[C@@]2(C)C3CC=C4C(CC[C@H](O[C@@H]5O[C@H](CO)[C@@H](O)[C@H](O)[C@H]5O)C4(C)C)[C@]3(C)[C@H](O)C[C@]12C", "note": "(some centres unmarked) [Compound 1]", "values": [{"measurement": "Observed", "setting": "Test Day", "result": "132.20 ± 1.54", "unit": "µM"}, {"measurement": "Observed", "setting": "the day before the testing day", "result": "134.48 ± 7.31", "unit": "µM"}]}
